# Test results taken from the supplement of paper PMC4604168 (melanoma cell lines).
# The list shows a part of the results. Many values rest on one well or one pass, so single values are uncertain.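 Imaging used 1,536-well plates; nuclei positive for cleaved PARP by antibody were divided by total DNA-stained nuclei to yield the apoptosis fraction. Doses for screening kept most cells viable, and cell lines differ markedly in resting and induced cleaved-PARP levels.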
# Tests used:
# Test in all cases: cleaved PARP positive nuclei fraction relative to DMSO control; melanoma cells; higher = more apoptosis
# Settings in all cases: library dose: low library concentration; 72 h
# 501Mel = test system: 501Mel
# A101D = test system: A101D
# A2058 = test system: A2058
# A375 = test system: A375
# C32 = test system: C32
# CBRC008 = test system: CBRC008 (line from a melanoma biopsy)
# CBRC013 = test system: CBRC013 (line from a melanoma biopsy)
# CBRC014 = test system: CBRC014 (line from a melanoma biopsy)
# CBRC016 = test system: CBRC016 (line from a melanoma biopsy)
# CBRC017 = test system: CBRC017 (line from a melanoma biopsy)
# COLO792 = test system: COLO792
# COLO800 = test system: COLO800
# COLO829 = test system: COLO829
# G361 = test system: G361
# IPC-298 = test system: IPC-298
# IST-MEL1 = test system: IST-MEL1
# LB2518-MEL = test system: LB2518-MEL
# LOXIMVI = test system: LOXIMVI
# MEL-HO = test system: MEL-HO
Structure (SMILES),cleaved PARP positive nuclei fraction (501Mel) [%],cleaved PARP positive nuclei fraction (A101D) [%],cleaved PARP positive nuclei fraction (A2058) [%],cleaved PARP positive nuclei fraction (A375) [%],cleaved PARP positive nuclei fraction (C32) [%],cleaved PARP positive nuclei fraction (CBRC008) [%],cleaved PARP positive nuclei fraction (CBRC013) [%],cleaved PARP positive nuclei fraction (CBRC014) [%],cleaved PARP positive nuclei fraction (CBRC016) [%],cleaved PARP positive nuclei fraction (CBRC017) [%],cleaved PARP positive nuclei fraction (COLO792) [%],cleaved PARP positive nuclei fraction (COLO800) [%],cleaved PARP positive nuclei fraction (COLO829) [%],cleaved PARP positive nuclei fraction (G361) [%],cleaved PARP positive nuclei fraction (IPC-298) [%],cleaved PARP positive nuclei fraction (IST-MEL1) [%],cleaved PARP positive nuclei fraction (LB2518-MEL) [%],cleaved PARP positive nuclei fraction (LOXIMVI) [%],cleaved PARP positive nuclei fraction (MEL-HO) [%]
"Nc1cccc2c1CN(C1CCC(=O)NC1=O)C2=O (configuration not stated) [lenalidomide] + O=C(Nc1cccc(Cl)c1)Nc1ncc(CCNc2ncnc3ccsc23)s1 [SNS314] (first compound 1 µM, partner dose 0.0008 µM)",49.5,80.2,91.5,33.9,84.5,243,92.3,106,77.9,70.9,86.4,91.4,106,97.7,88.7,53.1,297,220,124
"C[C@]1(c2nc3c(C(N)=O)cccc3[nH]2)CCCN1 [Veliparib] + OCCn1cc(-c2cnc3nnn(Cc4ccc5ncccc5c4)c3n2)cn1 [PF04217903] (first compound 1.4 µM, partner dose 1 µM)",129,160,107,150,90.2,47.6,146,99.7,187,101,90.6,67.8,102,146,22.9,97.7,223,172,133
"COCC[n+]1c2c(n(Cc3cnccn3)c1C)C(=O)c1ccccc1C2=O + COc1cc(Nc2ncc(F)c(Nc3ccc4c(n3)NC(=O)C(C)(C)O4)n2)cc(OC)c1OC [Tamatinib] (first compound 0.0004 µM, partner dose 0.4 µM)",108,49.3,337,231,78.3,1480,157,181,157,109,148,94.3,83.5,94.5,61.5,76.3,134,15.6,79.7
"O=C(CCCCCCC(=O)Nc1ccccc1)NO [vorinostat] + Cc1cc(N2CCOCC2)cc2[nH]c(-c3c(NC[C@@H](O)c4cccc(Cl)c4)cc[nH]c3=O)nc12 [BMS536924] (first compound 0.08 µM, partner dose 0.2 µM)",104,40.9,201,62.3,275,185,127,93.1,27,203,114,289,156,101,22.8,97.3,169,116,108
"Cn1c(Nc2ccc(C(F)(F)F)cc2)nc2cc(Oc3ccnc(-c4ncc(C(F)(F)F)[nH]4)c3)ccc21 + C=CCn1c(=O)c2cnc(Nc3ccc(N4CCN(C)CC4)cc3)nc2n1-c1cccc(C(C)(C)O)n1 [MK1775] (first compound 0.08 µM, partner dose 0.02 µM)",175,80,288,623,250,138,96.5,124,192,117,998,90.9,181,357,179,146,185,55,43.4
"Cc1ccc(NC(=O)c2cccc(N(C)C)c2)cc1NC(=O)c1ccc(O)cc1 + OCCn1cc(-c2cnc3nnn(Cc4ccc5ncccc5c4)c3n2)cn1 [PF04217903] (first compound 2 µM, partner dose 1 µM)",257,42,174,99.1,192,77.1,107,100,109,125,159,54,152,52.7,107,34.7,90.6,44,72.2
"Cc1nc(Nc2ncc(C(=O)Nc3c(C)cccc3Cl)s2)cc(N2CCN(CCO)CC2)n1 [dasatanib] + NCC(=O)Nc1ccc(-n2nc(C(F)(F)F)cc2-c2ccc3c(ccc4ccccc43)c2)cc1 [OSU03012] (first compound 0.004 µM, partner dose 1 µM)",182,179,115,4830,173,116,103,123,97.5,113,279,154,186,85.8,185,113,145,94.1,36.3
"OCc1c[nH]c2ccccc12 [Indole-3-carbinol] + CC(C)(C)c1cnc(CSc2cnc(NC(=O)C3CCNCC3)s2)o1 [SNS-032] (first compound 0.8 µM, partner dose 0.01 µM)",192,81.6,115,325,163,148,77.1,399,36.7,53.6,128,101,174,79.3,59,50.5,109,106,71.3
"NC(=O)Nc1cc(-c2cccc(F)c2)sc1C(=O)N[C@H]1CCCNC1 + O=C(O)c1ccc(-c2c[nH]c3ncc(-c4ccccc4)cc23)cc1C1CCCC1 [GSK650394] (first compound 0.02 µM, partner dose 0.16 µM)",82.7,210,193,570,124,177,111,106,130,133,105,111,105,80.9,48.5,92.4,40.6,400,49.2
"Cn1nnc2c(C(N)=O)ncn2c1=O [temozolomide] + O=C(CCCCCCC(=O)Nc1ccccc1)NO [vorinostat] (first compound 2 µM, partner dose 0.08 µM)",83.7,76.5,30.9,57.4,30.8,73.3,97,85.5,202,67,172,43.5,80.9,38.9,90.1,103,185,91.3,126
"C[C@]1(c2nc3c(C(N)=O)cccc3[nH]2)CCCN1 [Veliparib] + O=C(Nc1cccc(Cl)c1)Nc1ncc(CCNc2ncnc3ccsc23)s1 [SNS314] (first compound 1.4 µM, partner dose 0.0008 µM)",73.1,100,131,83.6,61.6,327,128,92,154,85,92.9,75.3,73.8,213,89.9,88.7,93.4,171,216
"OCc1c[nH]c2ccccc12 [Indole-3-carbinol] + O=C(CCCCCCC(=O)Nc1ccccc1)NO [vorinostat] (first compound 0.8 µM, partner dose 0.08 µM)",165,81.4,52.5,58.6,28.5,53.4,114,83.7,436,79.8,137,85.5,52.5,175,86.4,96.8,97.7,164,87.5
"Cn1c(Nc2ccc(C(F)(F)F)cc2)nc2cc(Oc3ccnc(-c4ncc(C(F)(F)F)[nH]4)c3)ccc21 + COc1cc(Nc2ncc(F)c(Nc3ccc4c(n3)NC(=O)C(C)(C)O4)n2)cc(OC)c1OC [Tamatinib] (first compound 0.08 µM, partner dose 0.4 µM)",85.4,594,77.1,66.5,44.3,579,128,150,145,107,251,52.3,103,196,357,165,154,23.3,71.7
"Cc1nc(Nc2ncc(C(=O)Nc3c(C)cccc3Cl)s2)cc(N2CCN(CCO)CC2)n1 [dasatanib] + CC1(C)NC(=O)N(c2ccc([N+](=O)[O-])c(C(F)(F)F)c2)C1=O [nilutamide] (first compound 0.004 µM, partner dose 1 µM)",94.3,84.5,111,188,356,36,102,112,85,112,141,39.2,139,45.3,47,91.1,96.5,76,94.1
"CC(C)(C)c1cnc(CSc2cnc(NC(=O)C3CCNCC3)s2)o1 + Cn1cncc1[C@@](N)(c1ccc(Cl)cc1)c1ccc2c(c1)c(-c1cccc(Cl)c1)cc(=O)n2C [tipifarnib] (first compound 0.01 µM, partner dose 0.01 µM)",187,121,121,430,319,73.1,151,103,117,104,28,89.9,229,132,93.5,106,116,238,138
"CC(=O)c1c(C)c2cnc(Nc3ccc(N4CCNCC4)cn3)nc2n(C2CCCC2)c1=O [palbociclib] + COc1cc2c(Oc3ccc4[nH]c(C)cc4c3F)ncnc2cc1OCCCN1CCCC1 [cediranib] (first compound 0.04 µM, partner dose 0.4 µM)",154,47.2,160,55.7,33.6,81.3,102,89.8,246,136,224,66.2,45.5,96.3,49.8,37,130,148,141
"COCC[n+]1c2c(n(Cc3cnccn3)c1C)C(=O)c1ccccc1C2=O + NC(=O)Nc1cc(-c2cccc(F)c2)sc1C(=O)N[C@H]1CCCNC1 [AZD7762] (first compound 0.0004 µM, partner dose 0.02 µM)",72.1,108,326,318,74.4,622,100,75,95.8,322,84.7,27.7,102,111,47,66.3,116,105,70
"Cn1cncc1[C@@](N)(c1ccc(Cl)cc1)c1ccc2c(c1)c(-c1cccc(Cl)c1)cc(=O)n2C [tipifarnib] + CN(C)S(=O)(=O)c1ccc2c(c1)/C(=C/c1cc3c([nH]1)CCCC3)C(=O)N2 [SU6656] (first compound 0.01 µM, partner dose 0.4 µM)",89.5,267,77.6,155,104,57.7,106,109,240,122,68.1,99.3,204,116,101,136,128,53,47

# Given tab-delimited: part of the list above.
Structure (SMILES)	cleaved PARP positive nuclei fraction (501Mel) [%]	cleaved PARP positive nuclei fraction (A101D) [%]	cleaved PARP positive nuclei fraction (A2058) [%]	cleaved PARP positive nuclei fraction (A375) [%]	cleaved PARP positive nuclei fraction (C32) [%]	cleaved PARP positive nuclei fraction (CBRC008) [%]	cleaved PARP positive nuclei fraction (CBRC013) [%]	cleaved PARP positive nuclei fraction (CBRC014) [%]	cleaved PARP positive nuclei fraction (CBRC016) [%]	cleaved PARP positive nuclei fraction (CBRC017) [%]	cleaved PARP positive nuclei fraction (COLO792) [%]	cleaved PARP positive nuclei fraction (COLO800) [%]	cleaved PARP positive nuclei fraction (COLO829) [%]	cleaved PARP positive nuclei fraction (G361) [%]	cleaved PARP positive nuclei fraction (IPC-298) [%]	cleaved PARP positive nuclei fraction (IST-MEL1) [%]	cleaved PARP positive nuclei fraction (LB2518-MEL) [%]	cleaved PARP positive nuclei fraction (LOXIMVI) [%]	cleaved PARP positive nuclei fraction (MEL-HO) [%]
Nc1cccc2c1CN(C1CCC(=O)NC1=O)C2=O (configuration not stated) [lenalidomide] + O=C(Nc1cccc(Cl)c1)Nc1ncc(CCNc2ncnc3ccsc23)s1 [SNS314] (first compound 1 µM, partner dose 0.0008 µM)	49.5	80.2	91.5	33.9	84.5	243	92.3	106	77.9	70.9	86.4	91.4	106	97.7	88.7	53.1	297	220	124
C[C@]1(c2nc3c(C(N)=O)cccc3[nH]2)CCCN1 [Veliparib] + OCCn1cc(-c2cnc3nnn(Cc4ccc5ncccc5c4)c3n2)cn1 [PF04217903] (first compound 1.4 µM, partner dose 1 µM)	129	160	107	150	90.2	47.6	146	99.7	187	101	90.6	67.8	102	146	22.9	97.7	223	172	133
COCC[n+]1c2c(n(Cc3cnccn3)c1C)C(=O)c1ccccc1C2=O + COc1cc(Nc2ncc(F)c(Nc3ccc4c(n3)NC(=O)C(C)(C)O4)n2)cc(OC)c1OC [Tamatinib] (first compound 0.0004 µM, partner dose 0.4 µM)	108	49.3	337	231	78.3	1480	157	181	157	109	148	94.3	83.5	94.5	61.5	76.3	134	15.6	79.7
O=C(CCCCCCC(=O)Nc1ccccc1)NO [vorinostat] + Cc1cc(N2CCOCC2)cc2[nH]c(-c3c(NC[C@@H](O)c4cccc(Cl)c4)cc[nH]c3=O)nc12 [BMS536924] (first compound 0.08 µM, partner dose 0.2 µM)	104	40.9	201	62.3	275	185	127	93.1	27	203	114	289	156	101	22.8	97.3	169	116	108
